The text below walks through data of paper PMC5807399.

For at least one entry, the source does not settle the construct or the ends of the probe. For part of these data: At least one verdict was read from the data and is not stated in words by the source. Where a protein sequence is shown, tags need not be part of it.

What all share (test): EMSA
On the technique in general: Mobility shift assays separate free from complexed probe on a gel.

Data set [1] concerns the target T1, GmPHD4 (Glycine max) (UniProt I1M961).
T1 sequence (looked up, limits assumed): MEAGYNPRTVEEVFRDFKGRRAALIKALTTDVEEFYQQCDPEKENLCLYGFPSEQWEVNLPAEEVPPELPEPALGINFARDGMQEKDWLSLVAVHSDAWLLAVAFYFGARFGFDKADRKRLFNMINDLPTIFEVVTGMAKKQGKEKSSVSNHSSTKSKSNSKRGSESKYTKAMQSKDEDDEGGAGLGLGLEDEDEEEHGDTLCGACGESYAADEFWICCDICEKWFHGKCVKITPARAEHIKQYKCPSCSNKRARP
Conditions: positive control; Binding buffer, pH and temperature not stated (EMSA as previously described, or LightShift Chemiluminescent EMSA kit); 2xGTGGAG probe annealed in 50 mM NaCl; recombinant protein; label: 32P end label.

For data set [2], the target named is T2, AhAL2 (Atriplex hortensis) (UniProt A0A2D3FB38).
T2 sequence (looked up): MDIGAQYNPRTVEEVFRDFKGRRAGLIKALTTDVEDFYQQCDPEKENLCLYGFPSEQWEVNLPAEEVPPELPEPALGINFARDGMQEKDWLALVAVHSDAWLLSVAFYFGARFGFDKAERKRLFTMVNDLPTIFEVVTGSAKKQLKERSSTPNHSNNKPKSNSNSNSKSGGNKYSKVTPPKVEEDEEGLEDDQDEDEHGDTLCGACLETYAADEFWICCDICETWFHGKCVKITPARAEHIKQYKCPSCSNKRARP
Conditions: competed by 10x unlabeled probe; Binding buffer, pH and temperature not stated (EMSA as previously described, or LightShift Chemiluminescent EMSA kit); 2xGTGGAG probe annealed in 50 mM NaCl; recombinant protein; residues 1-256; protein details: GST (N-terminal, pGEX-6P-1); label: 32P end label.

Data set [3] deals with T3, AhAL3 (Atriplex hortensis) (UniProt A0A2D3FB43).
T3 sequence (looked up): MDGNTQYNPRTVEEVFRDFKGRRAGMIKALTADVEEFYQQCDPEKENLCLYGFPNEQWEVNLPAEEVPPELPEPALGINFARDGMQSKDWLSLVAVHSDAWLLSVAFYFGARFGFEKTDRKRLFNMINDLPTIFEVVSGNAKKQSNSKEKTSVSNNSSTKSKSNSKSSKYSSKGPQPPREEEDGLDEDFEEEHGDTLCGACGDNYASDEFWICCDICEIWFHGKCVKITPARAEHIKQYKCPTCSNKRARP
Conditions: competed by 10x unlabeled probe; Binding buffer, pH and temperature not stated (EMSA as previously described, or LightShift Chemiluminescent EMSA kit); 2xGTGGAG probe annealed in 50 mM NaCl; recombinant protein; residues 1-251; protein details: GST (N-terminal, pGEX-6P-1); label: 32P end label.

Data set [4] concerns the target T4, AhAL1 (Atriplex hortensis) (UniProt A0A1W5T2K2).
T4 sequence (looked up): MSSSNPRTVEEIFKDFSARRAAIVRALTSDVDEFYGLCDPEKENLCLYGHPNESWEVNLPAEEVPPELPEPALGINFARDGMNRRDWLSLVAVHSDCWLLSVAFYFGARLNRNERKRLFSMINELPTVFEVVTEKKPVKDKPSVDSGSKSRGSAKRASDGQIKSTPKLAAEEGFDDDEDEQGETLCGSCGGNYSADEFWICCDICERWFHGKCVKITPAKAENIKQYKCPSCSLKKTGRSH
Particulars: Binding buffer, pH and temperature not stated (EMSA as previously described, or LightShift Chemiluminescent EMSA kit), 2xGTGGAG probe annealed in 50 mM NaCl, recombinant protein, residues 1-241, protein details: GST (N-terminal, pGEX-6P-1).

Data set [5] addresses T5, AhAL4 (Atriplex hortensis) (UniProt A0A2D3FB44).
T5 sequence (looked up): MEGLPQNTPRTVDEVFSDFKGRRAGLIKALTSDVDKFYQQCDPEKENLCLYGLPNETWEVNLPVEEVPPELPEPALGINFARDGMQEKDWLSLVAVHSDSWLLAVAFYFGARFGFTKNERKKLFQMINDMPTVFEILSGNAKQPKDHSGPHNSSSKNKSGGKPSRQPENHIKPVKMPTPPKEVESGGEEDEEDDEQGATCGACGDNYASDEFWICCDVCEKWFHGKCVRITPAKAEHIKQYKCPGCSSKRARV
Particulars: competed by 10x unlabeled probe; Binding buffer, pH and temperature not stated (EMSA as previously described, or LightShift Chemiluminescent EMSA kit); 2xGTGGAG probe annealed in 50 mM NaCl; recombinant protein; residues 1-253; protein details: GST (N-terminal, pGEX-6P-1); label: 32P end label.

Setting [6] is: 100x unlabeled probe as competitor, label: 5' biotin.

As to “AACTTCATCTAGGTGGAGATGTATGATGTACTACTACATGTATCGTGGAGTACAACATC (double strand) [2xGTGGAG probe]”, the binding result in data set [1] is recorded as “binds”; in data set [2], “binds”; in data set [3], “binds”; in data set [4] (competed by 10x unlabeled probe, label: 32P end label), “binds”; in data set [5] it was “binds”. For “AGTCCATCTTTGAAATTTAAAGCTTTGTTGTGGTGTGGTGTGGAAATCTC (double strand) [HAB1 promoter probe]”, the binding result in data set [4] (setting [6]) was “binds”. The same measure, in the same setting: the entry for “ATGAACCTTTTTTTCTTTCGATCAAATCTCTCCCGCCACCCAACTAACAC (double strand) [ABI1 promoter probe]” is “binds”. Still for that read-out and setting: with “CAAAACTTCTATAAAGATACCCAATAATAATGGAGGGGTGACACGATAGT (double strand) [ABI2 promoter probe]” the entry was “binds”; with “CATCAATCCACAAACTAGATTCATAGAAAACATCCCCCACCGTTAGATCG (double strand) [GRF7 promoter probe]”, “binds”; with “CGTGGCATTCACAGAGACAGAAACTCCGCGTTCGACCCCACAAATATCCA (double strand) [DREB1C promoter probe]”, “binds”. In the case of “GGTCGTTGTCACATAAAGAAACTTGGGATTCCGTGGAGTGCTTATAATTT (double strand) [HAB2 promoter probe]”, the binding result in data set [4] (setting [6]) is “binds”. On to “TATTACTAGATTTTTCTTATATGTTTTAAGGGTAGTGGGGCTGACCTATC (double strand) [AHG3 promoter probe]”, for which, in data set [4] (setting [6]), the binding result is reported as “binds”.
